Data taken from patent US20250034144A1, “NEW CRYSTAL FORM OF ERTAPENEM SODIUM AND PREPARATION METHOD THEREFOR” (ASYMCHEM LABORATORIES (TIANJIN) CO., LTD., priority 2021, published 2025).

Key:
[1] = Drying until solvent residue satisfied ICH standards (drying time); conditions: 5-15° C., nitrogen flow 1-2 m^3/h, nitrogen humidity 20-40%
Source text: (§1) (One) 100 g (±5%) of the crystal form product in Example 1, the crystal form A product, the crystal form B product, the crystal form C product, the crystal form D product, the crystal form E product and the amorphous product of ertapenem sodium were separately taken and subjected to press filtration until no filtrate dropped, followed by drying until a solvent residue satisfied ICH standards. As the crystal form B was obtained by stirring and washing the crystal form A and the crystal form C was obtained by stirring and washing the crystal form B, only the filtration time of the crystal form A was counted. • 2. The press filtration was performed by a same Hastelloy filter dryer (800 mL ϕ=110 mm), it was ensured that the press filtration was performed at a vacuum degree (p) of equal to or less than −0.095 MPa, and meanwhile, an upper port of the filter dryer was protected with nitrogen. • 3. The drying was performed at a temperature of 5-15° C., a nitrogen flow rate of 1-2 m^3/h and a nitrogen humidity of 20-40%.

[2] = Press filtration until no filtrate dropped (filtration time); conditions: 100 g (±5%), vacuum ≤ −0.095 MPa, Hastelloy filter dryer 800 mL
Source text: as §1

SMILES	Drying time [1] [h]	Filtration time [2] [min]
C[C@@H](O)[C@H]1C(=O)N2C(C(=O)[O-])=C(S[C@@H]3CN[C@H](C(=O)Nc4cccc(C(=O)O)c4)C3)[C@H](C)[C@H]12.[Na+] [Amorphous, ertapenem sodium]	25	117
C[C@@H](O)[C@H]1C(=O)N2C(C(=O)[O-])=C(S[C@@H]3CN[C@H](C(=O)Nc4cccc(C(=O)O)c4)C3)[C@H](C)[C@H]12.[Na+] [Crystal form A, ertapenem sodium]	35	63
C[C@@H](O)[C@H]1C(=O)N2C(C(=O)[O-])=C(S[C@@H]3CN[C@H](C(=O)Nc4cccc(C(=O)O)c4)C3)[C@H](C)[C@H]12.[Na+] [Crystal form B, ertapenem sodium]	23	
C[C@@H](O)[C@H]1C(=O)N2C(C(=O)[O-])=C(S[C@@H]3CN[C@H](C(=O)Nc4cccc(C(=O)O)c4)C3)[C@H](C)[C@H]12.[Na+] [Crystal form C, ertapenem sodium]	11	
C[C@@H](O)[C@H]1C(=O)N2C(C(=O)[O-])=C(S[C@@H]3CN[C@H](C(=O)Nc4cccc(C(=O)O)c4)C3)[C@H](C)[C@H]12.[Na+] [Crystal form D, ertapenem sodium]	15	110
C[C@@H](O)[C@H]1C(=O)N2C(C(=O)[O-])=C(S[C@@H]3CN[C@H](C(=O)Nc4cccc(C(=O)O)c4)C3)[C@H](C)[C@H]12.[Na+] [Crystal form E, ertapenem sodium]	17	85
C[C@@H](O)[C@H]1C(=O)N2C(C(=O)[O-])=C(S[C@@H]3CN[C@H](C(=O)Nc4cccc(C(=O)O)c4)C3)[C@H](C)[C@H]12.[Na+] [Example 1, ertapenem sodium]	9	25
